From the supplement of paper PMC12595434, “Development of retinoid nuclear receptor pathway antagonists through targeting aldehyde dehydrogenase 1A3” (iScience, 2025)
The list shows a part of the results. The data scatter; read single values as rough.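 Tm was set to 64 °C where no melting was found, and many curves are irregular.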

Chains of the proteins cited; added tags and fusions are not shown. Lines headed by an entry give the natural chain unless they say otherwise; changes in a name come on top.
UniProt P15927: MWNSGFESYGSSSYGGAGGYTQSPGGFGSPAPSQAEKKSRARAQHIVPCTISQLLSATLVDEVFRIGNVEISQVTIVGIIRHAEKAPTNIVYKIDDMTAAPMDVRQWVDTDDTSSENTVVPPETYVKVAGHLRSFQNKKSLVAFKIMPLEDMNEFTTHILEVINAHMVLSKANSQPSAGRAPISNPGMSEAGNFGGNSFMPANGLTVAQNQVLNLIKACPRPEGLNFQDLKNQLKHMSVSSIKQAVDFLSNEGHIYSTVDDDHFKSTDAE
UniProt P07738: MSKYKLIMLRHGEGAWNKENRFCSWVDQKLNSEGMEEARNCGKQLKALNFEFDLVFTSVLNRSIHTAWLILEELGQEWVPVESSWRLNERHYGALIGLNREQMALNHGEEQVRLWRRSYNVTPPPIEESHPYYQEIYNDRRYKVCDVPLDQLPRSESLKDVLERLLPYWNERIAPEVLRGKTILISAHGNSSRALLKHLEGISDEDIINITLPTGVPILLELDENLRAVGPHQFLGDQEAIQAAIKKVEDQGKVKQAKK
UniProt P08237: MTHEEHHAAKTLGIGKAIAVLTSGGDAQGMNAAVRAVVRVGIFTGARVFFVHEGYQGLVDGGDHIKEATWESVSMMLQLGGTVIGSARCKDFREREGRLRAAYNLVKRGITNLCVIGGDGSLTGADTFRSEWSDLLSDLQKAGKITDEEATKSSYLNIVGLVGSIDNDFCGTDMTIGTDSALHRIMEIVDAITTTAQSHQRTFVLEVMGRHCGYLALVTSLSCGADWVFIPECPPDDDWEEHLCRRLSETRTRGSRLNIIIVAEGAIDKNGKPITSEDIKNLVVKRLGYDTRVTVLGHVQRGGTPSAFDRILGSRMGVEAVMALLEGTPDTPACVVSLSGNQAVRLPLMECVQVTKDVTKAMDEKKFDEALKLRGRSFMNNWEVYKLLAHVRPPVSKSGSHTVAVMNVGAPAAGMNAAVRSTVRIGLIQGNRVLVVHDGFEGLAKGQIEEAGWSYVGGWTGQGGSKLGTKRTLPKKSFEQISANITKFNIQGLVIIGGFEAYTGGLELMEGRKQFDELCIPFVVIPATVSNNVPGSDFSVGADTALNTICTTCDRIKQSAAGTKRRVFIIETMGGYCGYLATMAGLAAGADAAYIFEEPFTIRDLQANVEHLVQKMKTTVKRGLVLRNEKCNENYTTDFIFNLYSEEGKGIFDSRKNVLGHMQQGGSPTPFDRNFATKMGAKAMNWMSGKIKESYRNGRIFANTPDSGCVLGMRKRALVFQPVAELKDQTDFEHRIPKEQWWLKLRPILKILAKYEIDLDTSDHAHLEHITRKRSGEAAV
UniProt P14854, whole entry: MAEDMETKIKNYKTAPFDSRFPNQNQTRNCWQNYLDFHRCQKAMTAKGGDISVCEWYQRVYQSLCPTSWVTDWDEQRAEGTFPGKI
UniProt P10636, whole entry: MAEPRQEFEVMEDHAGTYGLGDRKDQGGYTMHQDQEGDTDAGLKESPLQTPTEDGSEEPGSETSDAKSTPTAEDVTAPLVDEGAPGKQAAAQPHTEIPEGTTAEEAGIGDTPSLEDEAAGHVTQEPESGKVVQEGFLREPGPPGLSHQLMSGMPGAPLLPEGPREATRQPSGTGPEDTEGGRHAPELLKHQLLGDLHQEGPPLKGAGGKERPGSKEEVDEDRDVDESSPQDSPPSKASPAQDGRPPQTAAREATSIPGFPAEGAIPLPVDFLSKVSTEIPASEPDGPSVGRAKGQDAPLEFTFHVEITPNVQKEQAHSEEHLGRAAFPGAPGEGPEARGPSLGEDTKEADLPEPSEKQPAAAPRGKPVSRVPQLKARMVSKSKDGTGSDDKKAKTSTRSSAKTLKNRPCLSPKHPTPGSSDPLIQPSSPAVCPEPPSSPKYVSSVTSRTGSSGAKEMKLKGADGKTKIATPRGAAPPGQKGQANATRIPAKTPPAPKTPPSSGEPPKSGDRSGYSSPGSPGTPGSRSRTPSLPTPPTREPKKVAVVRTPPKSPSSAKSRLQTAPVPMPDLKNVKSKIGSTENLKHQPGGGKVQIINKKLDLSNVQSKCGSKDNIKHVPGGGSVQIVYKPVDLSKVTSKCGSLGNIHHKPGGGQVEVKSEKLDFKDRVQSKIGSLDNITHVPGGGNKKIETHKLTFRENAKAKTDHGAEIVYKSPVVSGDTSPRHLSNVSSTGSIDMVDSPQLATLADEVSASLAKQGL
UniProt P12270, whole entry: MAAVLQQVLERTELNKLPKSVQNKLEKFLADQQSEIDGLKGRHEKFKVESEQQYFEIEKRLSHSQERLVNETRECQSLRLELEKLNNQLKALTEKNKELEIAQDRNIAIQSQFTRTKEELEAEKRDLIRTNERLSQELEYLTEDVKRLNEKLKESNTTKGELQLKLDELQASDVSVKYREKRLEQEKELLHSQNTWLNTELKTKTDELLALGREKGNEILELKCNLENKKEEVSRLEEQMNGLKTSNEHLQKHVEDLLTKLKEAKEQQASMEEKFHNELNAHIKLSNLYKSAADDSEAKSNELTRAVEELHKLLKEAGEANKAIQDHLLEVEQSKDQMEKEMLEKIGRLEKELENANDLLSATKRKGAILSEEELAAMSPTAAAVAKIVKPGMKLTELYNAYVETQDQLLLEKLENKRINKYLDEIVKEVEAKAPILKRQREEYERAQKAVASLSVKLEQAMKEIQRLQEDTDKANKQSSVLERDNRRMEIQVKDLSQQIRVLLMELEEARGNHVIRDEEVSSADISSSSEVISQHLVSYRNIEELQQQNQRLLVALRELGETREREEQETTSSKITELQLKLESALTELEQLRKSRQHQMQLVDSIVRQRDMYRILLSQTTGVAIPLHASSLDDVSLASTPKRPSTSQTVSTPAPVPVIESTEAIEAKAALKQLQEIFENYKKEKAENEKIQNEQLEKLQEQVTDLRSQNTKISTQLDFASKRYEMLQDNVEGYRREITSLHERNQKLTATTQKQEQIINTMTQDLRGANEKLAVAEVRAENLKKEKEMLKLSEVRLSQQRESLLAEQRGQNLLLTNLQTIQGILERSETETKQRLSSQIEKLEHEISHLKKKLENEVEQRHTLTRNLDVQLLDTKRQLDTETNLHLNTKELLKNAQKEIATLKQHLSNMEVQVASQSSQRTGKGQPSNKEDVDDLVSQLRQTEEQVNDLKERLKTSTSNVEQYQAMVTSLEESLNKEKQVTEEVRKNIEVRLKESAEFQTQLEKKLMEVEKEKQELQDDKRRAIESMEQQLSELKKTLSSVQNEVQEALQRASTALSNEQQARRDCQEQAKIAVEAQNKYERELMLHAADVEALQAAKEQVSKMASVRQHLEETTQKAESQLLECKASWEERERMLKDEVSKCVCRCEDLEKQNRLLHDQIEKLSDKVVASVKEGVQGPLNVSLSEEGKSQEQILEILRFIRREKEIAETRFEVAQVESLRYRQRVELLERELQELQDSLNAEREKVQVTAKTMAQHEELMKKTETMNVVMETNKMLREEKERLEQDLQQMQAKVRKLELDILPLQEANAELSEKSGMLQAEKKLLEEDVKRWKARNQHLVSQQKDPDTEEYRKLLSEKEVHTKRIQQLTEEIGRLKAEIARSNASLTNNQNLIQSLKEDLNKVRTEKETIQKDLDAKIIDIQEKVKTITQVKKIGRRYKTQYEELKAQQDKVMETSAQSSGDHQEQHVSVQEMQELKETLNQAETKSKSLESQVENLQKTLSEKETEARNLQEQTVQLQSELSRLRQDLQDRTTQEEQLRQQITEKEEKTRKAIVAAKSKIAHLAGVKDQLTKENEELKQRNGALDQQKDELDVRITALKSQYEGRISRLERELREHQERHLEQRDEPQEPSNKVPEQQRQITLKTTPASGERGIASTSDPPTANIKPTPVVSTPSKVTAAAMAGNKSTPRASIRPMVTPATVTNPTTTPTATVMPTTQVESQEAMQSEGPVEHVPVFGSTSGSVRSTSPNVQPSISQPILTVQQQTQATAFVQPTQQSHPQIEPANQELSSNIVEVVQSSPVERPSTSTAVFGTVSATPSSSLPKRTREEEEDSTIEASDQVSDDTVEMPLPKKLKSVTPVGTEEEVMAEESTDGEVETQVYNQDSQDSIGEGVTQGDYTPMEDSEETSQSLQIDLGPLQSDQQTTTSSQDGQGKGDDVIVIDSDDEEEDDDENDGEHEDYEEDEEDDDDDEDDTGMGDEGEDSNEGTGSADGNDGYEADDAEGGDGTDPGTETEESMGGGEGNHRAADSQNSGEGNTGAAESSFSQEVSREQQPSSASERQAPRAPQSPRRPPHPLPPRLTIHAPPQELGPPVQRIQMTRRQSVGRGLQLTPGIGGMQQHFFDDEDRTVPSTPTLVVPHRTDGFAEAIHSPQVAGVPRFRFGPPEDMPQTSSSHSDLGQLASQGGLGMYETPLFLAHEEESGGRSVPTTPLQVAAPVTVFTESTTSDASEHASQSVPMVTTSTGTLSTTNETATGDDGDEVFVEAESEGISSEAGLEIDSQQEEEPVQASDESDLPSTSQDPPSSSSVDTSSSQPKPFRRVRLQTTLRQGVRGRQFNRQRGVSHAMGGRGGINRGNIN
UniProt P16152: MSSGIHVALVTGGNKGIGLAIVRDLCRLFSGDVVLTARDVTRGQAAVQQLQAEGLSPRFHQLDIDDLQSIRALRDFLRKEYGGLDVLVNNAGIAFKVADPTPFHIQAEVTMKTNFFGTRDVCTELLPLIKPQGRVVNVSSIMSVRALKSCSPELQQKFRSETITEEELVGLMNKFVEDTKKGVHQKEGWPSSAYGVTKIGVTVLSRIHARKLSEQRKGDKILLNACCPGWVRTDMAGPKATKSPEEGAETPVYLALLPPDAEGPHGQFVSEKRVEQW
UniProt P19338, whole entry: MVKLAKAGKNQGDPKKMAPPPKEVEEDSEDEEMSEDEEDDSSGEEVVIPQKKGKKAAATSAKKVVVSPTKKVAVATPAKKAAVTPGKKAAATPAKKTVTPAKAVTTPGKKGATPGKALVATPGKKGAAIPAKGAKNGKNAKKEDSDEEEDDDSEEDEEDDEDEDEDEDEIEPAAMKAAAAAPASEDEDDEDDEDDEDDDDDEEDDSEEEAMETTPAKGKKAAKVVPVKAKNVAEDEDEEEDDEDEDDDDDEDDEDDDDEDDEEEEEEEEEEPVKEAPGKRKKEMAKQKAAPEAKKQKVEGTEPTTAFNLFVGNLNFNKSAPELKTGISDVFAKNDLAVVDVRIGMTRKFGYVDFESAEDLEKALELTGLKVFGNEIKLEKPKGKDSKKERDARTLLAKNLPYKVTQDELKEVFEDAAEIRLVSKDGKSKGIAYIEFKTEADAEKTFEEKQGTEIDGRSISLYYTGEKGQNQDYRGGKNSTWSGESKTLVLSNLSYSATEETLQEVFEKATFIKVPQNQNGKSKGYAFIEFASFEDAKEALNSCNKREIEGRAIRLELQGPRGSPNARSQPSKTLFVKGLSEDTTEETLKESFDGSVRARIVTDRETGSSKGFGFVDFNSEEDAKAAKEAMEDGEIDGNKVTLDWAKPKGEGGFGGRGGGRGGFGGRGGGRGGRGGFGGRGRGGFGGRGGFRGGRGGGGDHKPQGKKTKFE
UniProt P11117: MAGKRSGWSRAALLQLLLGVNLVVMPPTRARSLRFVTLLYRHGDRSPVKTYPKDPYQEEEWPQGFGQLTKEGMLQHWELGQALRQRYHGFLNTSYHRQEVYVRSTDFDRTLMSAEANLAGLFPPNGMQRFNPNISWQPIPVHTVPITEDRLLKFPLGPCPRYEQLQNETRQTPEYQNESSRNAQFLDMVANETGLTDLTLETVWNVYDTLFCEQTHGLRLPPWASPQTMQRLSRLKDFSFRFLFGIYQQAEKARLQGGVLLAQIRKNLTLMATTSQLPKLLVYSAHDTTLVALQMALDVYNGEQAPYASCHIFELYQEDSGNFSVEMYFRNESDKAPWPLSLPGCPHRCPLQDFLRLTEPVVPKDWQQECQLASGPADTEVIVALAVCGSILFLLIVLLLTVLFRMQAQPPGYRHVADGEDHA

Compound: CCc1cnccc1C(=O)Nc1cc2c(cc1F)NC(=O)CC2
Test: melting temperature shift (DMSO Tm minus MBE1-treated Tm) in cellular thermal proteome profiling; higher = less thermal stabilization by MBE1 (negative = stabilized by MBE1)
Settings: A375

Row | Target | melting temperature shift (MBE1 concentration: 100 nM) [°C] | melting temperature shift (MBE1 concentration: 1 uM) [°C]
1 | XRCC5 (UniProt P13010) | -0.275 | -0.147
2 | NDUFV2 (UniProt P19404) | -0.543 | -0.416
3 | UniProt P07199 | -1.23 | -0.974
4 | UniProt P17252 | -0.0855 | -0.00611
5 | CCNB1 (UniProt P14635) | -1.7 | 0.429
6 | HSPA8 (UniProt P11142) | -1.32 | -0.879
7 | THBS1 (UniProt P07996) | -0.997 | 0.324
8 | CD46 (UniProt P15529) | -2.01 | -2.07
9 | LGALS3 (UniProt P17931) | 0.255 | -0.288
10 | CDK4 (UniProt P11802) | -2.08 | 0.0376
11 | POLR2C (UniProt P19387) | 0.055 | -0.183
12 | PLCG1 (UniProt P19174) | -0.0894 | 0.179
13 | TXN (UniProt P10599) | -3.71 | -2.63
14 | DLAT (UniProt P10515) | -1.11 | 0.863
15 | UniProt P12109 | -0.966 | 0.502
16 | UniProt P15531 | -2.8 | -0.325
17 | FGF2 (UniProt P09038) | -0.232 | -0.104
18 | ERCC3 (UniProt P19447) | -0.794 | -0.666
19 | PARP1 (UniProt P09874) | -0.457 | -0.596
20 | TRIM27 (UniProt P14373) | -1.02 | 6.41
21 | UniProt P16885 | -1.33 | -2.1
22 | RALB (UniProt P11234) | -1.78 | -0.307
23 | FOSL2 (UniProt P15408) | -1.08 | -5.56
24 | NELFE (UniProt P18615) | -1.65 | -2.31

Row | Target | melting temperature shift (MBE1 concentration: 100 nM) [°C] | melting temperature shift (MBE1 concentration: 1 uM) [°C]
25 | NQO1 (UniProt P15559) | 0.989 | 0.464
26 | PHKG2 (UniProt P15735) | -0.829 | 0.495
27 | UniProt P0C7T5 | 0.0201 | 10.6
28 | RNH1 (UniProt P13489) | -0.101 | -0.533
29 | RPA2 (UniProt P15927) | -2.76 | 0.794
30 | GLB1 (UniProt P16278) | -1.64 | -0.652
31 | ITGA2 (UniProt P17301) | -0.913 | -1.24
32 | SRPRA (UniProt P08240) | 0.495 | 0.421
33 | P0DMV9 (UniProt P0DMV8) | -0.845 | -0.657
34 | ACAA1 (UniProt P09110) | -0.879 | 1.01
35 | HNRNPL (UniProt P14866) | -0.109 | -0.0513
36 | POLR2E (UniProt P19388) | -0.122 | 0.193
37 | BPGM (UniProt P07738) | -1.81 | -0.937
38 | CTSA (UniProt P10619) | -1.07 | -1.08
39 | GTF2F2 (UniProt P13984) | -0.275 | 0.496
40 | UniProt P14406 | -2.68 | -3.91
41 | UniProt P16455 | 1.58 | 0.641
42 | UniProt P12110 | -1.19 | 2.3
43 | ANXA6 (UniProt P08133) | 0.8 | 0.263
44 | XRCC1 (UniProt P18887) | -0.154 | -0.327
45 | PTPN2 (UniProt P17706) | -0.32 | -0.706
46 | GAA (UniProt P10253) | -3.48 | -3.02
47 | PFKM (UniProt P08237) | -0.688 | -0.462
48 | HMBS (UniProt P08397) | -1.73 | -3.15

Quoted at random: six records from the list
Row | Target | melting temperature shift (MBE1 concentration: 100 nM) [°C] | melting temperature shift (MBE1 concentration: 1 uM) [°C]
21 | UniProt P16885 | -1.33 | -2.1
19 | PARP1 (UniProt P09874) | -0.457 | -0.596
35 | HNRNPL (UniProt P14866) | -0.109 | -0.0513
46 | GAA (UniProt P10253) | -3.48 | -3.02
27 | UniProt P0C7T5 | 0.0201 | 10.6
1 | XRCC5 (UniProt P13010) | -0.275 | -0.147

Remaining list, next part.

Row | Target | melting temperature shift (MBE1 concentration: 100 nM) [°C] | melting temperature shift (MBE1 concentration: 1 uM) [°C]
49 | XRCC6 (UniProt P12956) | -0.741 | -0.774
50 | UniProt P0DMP2 | 1.43 | 3.32
51 | EEF2 (UniProt P13639) | -0.824 | -0.904
52 | GYS1 (UniProt P13807) | -0.538 | 1.01
53 | IFIT1 (UniProt P09914) | -0.434 | -0.44
54 | UniProt P08779 | -10.4 | 1.96
55 | IGF2R (UniProt P11717) | -1.37 | 0.318
56 | ASNS (UniProt P08243) | -0.295 | 0.0672
57 | COX6B1 (UniProt P14854) | -1.29 | -0.765
58 | UniProt P07737 | -0.416 | -0.295
59 | YBX3 (UniProt P16989) | -2.24 | -0.858
60 | FDPS (UniProt P14324) | 0.891 | 1.11
61 | CNP (UniProt P09543) | 0.134 | 0.153
62 | UniProt P17677 | 0 | -1.99
63 | GALT (UniProt P07902) | -0.556 | 0.147
64 | UniProt P12757 | -0.104 | 0.397
65 | GSPT1 (UniProt P15170) | -0.342 | -0.0134
66 | FDX1 (UniProt P10109) | 0.806 | -3.64
67 | LAMB1 (UniProt P07942) | -0.818 | -0.107
68 | UniProt P20336 | -1.54 | -1.26
69 | PKM (UniProt P14618) | -1.06 | -0.63
70 | SRM (UniProt P19623) | 0.641 | 0.14
71 | ENO3 (UniProt P13929) | -3.28 | -3.09
72 | EPB41 (UniProt P11171) | -0.551 | 0.269

Row | Target | melting temperature shift (MBE1 concentration: 100 nM) [°C] | melting temperature shift (MBE1 concentration: 1 uM) [°C]
73 | UNG (UniProt P13051) | 0.659 | -0.128
74 | UniProt P20036 | -4.6 | -3.3
75 | FOSL1 (UniProt P15407) | 0.0733 | 0.446
76 | MAPT (UniProt P10636) | -5.31 | -2.94
77 | UniProt P0C7P4 | -1.05 | -0.782
78 | LGALS1 (UniProt P09382) | -0.738 | -1.44
79 | ANXA3 (UniProt P12429) | -0.288 | -0.557
80 | ITGB5 (UniProt P18084) | -2.07 | -0.0855
81 | TPR (UniProt P12270) | 0.0855 | -1.01
82 | HSP90AB1 (UniProt P08238) | -0.288 | 0.0604
83 | GCFC2 (UniProt P16383) | -0.279 | -0.48
84 | PAM (UniProt P19021) | -2.08 | -0.235
85 | UniProt P17612 | -0.174 | 0.488
86 | LAMC1 (UniProt P11047) | -0.986 | 0.336
87 | RRAS (UniProt P10301) | -1.96 | 0.299
88 | P4HA1 (UniProt P13674) | -1.16 | 0.361
89 | UniProt P0DJJ0 | 0.555 | -2.28
90 | PDHB (UniProt P11177) | 1.69 | 1.53
91 | ERCC1 (UniProt P07992) | -0.0672 | -0.721
92 | PRKCSH (UniProt P14314) | -6.39 | -5.84
93 | HMGB1 (UniProt P09429) | -0.862 | 0.00731
94 | ZKSCAN1 (UniProt P17029) | -1.47 | -0.858
95 | FH (UniProt P07954) | -0.114 | 0.0805
96 | UniProt P13591 | -3.48 | -2.89

Row | Target | melting temperature shift (MBE1 concentration: 100 nM) [°C] | melting temperature shift (MBE1 concentration: 1 uM) [°C]
97 | ANXA7 (UniProt P20073) | 0.116 | -0.104
98 | CTSB (UniProt P07858) | -1.34 | -0.195
99 | ANXA5 (UniProt P08758) | 0.36 | -0.165
100 | UniProt P17098 | 2.27 | 2.15
101 | VIM (UniProt P08670) | -0.218 | -0.61
102 | CBR1 (UniProt P16152) | -0.778 | -0.295
103 | P0DI82 (UniProt P0DI81) | 1.16 | 0.14
104 | UniProt P13056 | 1.83 | 0.147
105 | UniProt P15848 | -2.81 | -2.08
106 | FURIN (UniProt P09958) | -0.672 | 1.35
107 | MRPL3 (UniProt P09001) | -2.75 | -2.47
108 | CTPS1 (UniProt P17812) | -0.714 | 1.35
109 | NCL (UniProt P19338) | 0.147 | -0.788
110 | UniProt P0DN79 | -0.269 | 0.366
111 | FER (UniProt P16591) | -0.993 | 0.288
112 | ACP2 (UniProt P11117) | -2.76 | 0.348
113 | LAMP2 (UniProt P13473) | -4.2 | -1.84
114 | PRKAR1A (UniProt P10644) | 0.623 | 0.238
115 | CKB (UniProt P12277) | -1.95 | 0.434
116 | B4GALT1 (UniProt P15291) | -0.382 | 0.826
117 | POR (UniProt P16435) | -0.536 | -0.0183
118 | NAGA (UniProt P17050) | -1.37 | -2.52
119 | AKR1A1 (UniProt P14550) | -0.724 | -0.128
120 | ETFA (UniProt P13804) | -1.11 | 0.372
